No constants are given. Whether binding was seen depends on the method and setting. Some binding calls cover weakened binding; strength is not graded here. Where no end group is shown, it is not given here.
T1: formyl peptide receptor (UniProt P21462 1-350, limits assumed)
T1 sequence (looked up): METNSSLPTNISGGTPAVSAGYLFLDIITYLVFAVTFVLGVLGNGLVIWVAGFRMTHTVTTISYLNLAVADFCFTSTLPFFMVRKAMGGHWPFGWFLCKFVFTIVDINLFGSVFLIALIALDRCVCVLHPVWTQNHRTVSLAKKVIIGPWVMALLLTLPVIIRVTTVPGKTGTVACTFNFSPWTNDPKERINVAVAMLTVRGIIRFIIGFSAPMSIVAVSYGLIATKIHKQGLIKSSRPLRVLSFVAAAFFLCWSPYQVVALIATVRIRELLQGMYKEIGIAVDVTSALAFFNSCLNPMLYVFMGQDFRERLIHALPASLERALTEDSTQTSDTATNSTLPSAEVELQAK

T2: formyl peptide receptor-like 1 (UniProt P25090 1-351, limits assumed)
T2 sequence (looked up): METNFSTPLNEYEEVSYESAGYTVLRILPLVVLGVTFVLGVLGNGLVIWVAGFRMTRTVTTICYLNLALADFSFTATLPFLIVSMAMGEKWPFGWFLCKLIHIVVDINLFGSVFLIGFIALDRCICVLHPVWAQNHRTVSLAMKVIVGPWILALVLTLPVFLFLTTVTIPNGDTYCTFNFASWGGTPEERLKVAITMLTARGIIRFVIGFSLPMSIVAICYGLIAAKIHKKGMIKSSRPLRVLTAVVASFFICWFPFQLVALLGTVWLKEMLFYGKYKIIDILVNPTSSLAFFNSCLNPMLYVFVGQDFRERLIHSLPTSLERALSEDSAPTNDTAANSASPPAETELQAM


Columns and labels:
formyl peptide receptor [1] = molecular target: T1, formyl peptide receptor; test: displacement of ^125I-WKYMVm on FPR-expressing RBL-2H3 cells (FIG. 2A)
[2] = molecular target: T2, formyl peptide receptor-like 1; test: displacement of ^125I-WKYMVm on FPRL1-expressing RBL-2H3 cells (FIG. 2B)
formyl peptide receptor [3] = molecular target: T1, formyl peptide receptor; test: summary of the displacement assay on FPR-expressing RBL-2H3 cells

Row | binding (formyl peptide receptor [1]) | binding [2] | binding (formyl peptide receptor [3]) | Binder
1 | binds | binds | binds | WKYMVR (C-terminal amide (-NH2)) [Trp-Lys-Tyr-Met-Val-Arg-NH2]
2 | binds | binds | binds | WKYMVE (C-terminal amide (-NH2)) [Trp-Lys-Tyr-Met-Val-Glu-NH2]

From patent publication US20070219139A1 (POSCO, published 2007)
